A weaker result is weaker than the reference pair of the same experiment. For part of these data: Construct, isoform or probe ends are uncertain for at least one entry.
Key:
Test in all cases: EMSA
human XPA (human) = human XPA (human) (UniProt P23025); details: unstable complex; EMSA: 25 mM Tris-Cl pH 7.5, 100 mM NaCl, 5% glycerol, 1 mM DTT, room temperature 40 min; 0.8 uM forked DNA or 0.3 uM bubble DNA; 4% TBE native gel, ethidium bromide; recombinant protein; protein details: N-terminal His6-SUMO (removed)
[1] = molecular target: StXPB RED/AAA R205A,D206A,D207A (Sulfurisphaera tokodaii) (UniProt Q970I2); details: EMSA: 25 mM Tris-Cl pH 7.5, 100 mM NaCl, 5% glycerol, 1 mM DTT, room temperature 40 min, 0.8 uM forked DNA or 0.3 uM bubble DNA, 4% TBE native gel, ethidium bromide, recombinant protein, residues 2-439, protein details: N-terminal His8 (removed)
[2] = molecular target: StXPB ΔThM1 del270-280 (Sulfurisphaera tokodaii) (UniProt Q970I2); details: EMSA: 25 mM Tris-Cl pH 7.5, 100 mM NaCl, 5% glycerol, 1 mM DTT, room temperature 40 min, 0.8 uM forked DNA or 0.3 uM bubble DNA, 4% TBE native gel, ethidium bromide, recombinant protein, residues 2-439, protein details: N-terminal His8 (removed)
[3] = tested on: human XPB + human p52 + human p8; details: unstable complex, smear; EMSA: 25 mM Tris-Cl pH 7.5, 100 mM NaCl, 5% glycerol, 1 mM DTT, room temperature 40 min; 0.8 uM forked DNA or 0.3 uM bubble DNA; 4% TBE native gel, ethidium bromide; recombinant protein; protein details: N-terminal His6 (PreScission, removed)

Chains of the proteins cited; added tags and fusions are not shown. Lines headed by an entry give the natural chain unless they say otherwise; changes in a name come on top. A line that says so, or that is headed by a name, gives the form on record, which may keep a tag or linker. Residues count along the entry.
UniProt P23025: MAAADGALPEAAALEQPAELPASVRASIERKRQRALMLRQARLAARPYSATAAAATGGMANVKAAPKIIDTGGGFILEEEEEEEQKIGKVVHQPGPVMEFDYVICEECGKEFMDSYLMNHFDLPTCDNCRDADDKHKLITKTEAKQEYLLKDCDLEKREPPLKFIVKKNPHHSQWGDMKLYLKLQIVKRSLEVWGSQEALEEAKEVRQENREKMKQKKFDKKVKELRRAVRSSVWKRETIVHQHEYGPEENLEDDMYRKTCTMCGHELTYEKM
UniProt Q970I2, 2-439 R205A/D206A/D207A: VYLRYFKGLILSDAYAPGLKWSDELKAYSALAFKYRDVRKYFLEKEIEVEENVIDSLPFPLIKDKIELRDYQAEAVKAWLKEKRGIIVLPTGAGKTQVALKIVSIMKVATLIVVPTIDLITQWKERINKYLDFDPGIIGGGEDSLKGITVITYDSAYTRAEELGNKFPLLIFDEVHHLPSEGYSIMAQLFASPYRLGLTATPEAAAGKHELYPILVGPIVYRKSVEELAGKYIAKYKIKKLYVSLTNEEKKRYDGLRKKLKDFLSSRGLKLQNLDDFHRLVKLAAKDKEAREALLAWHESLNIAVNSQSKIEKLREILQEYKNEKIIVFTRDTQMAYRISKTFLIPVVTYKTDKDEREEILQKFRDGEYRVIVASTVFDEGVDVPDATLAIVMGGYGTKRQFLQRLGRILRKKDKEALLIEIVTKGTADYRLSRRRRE
human XPB + human p52 + human p8, one chain, as listed by the source, chain 1 of 3: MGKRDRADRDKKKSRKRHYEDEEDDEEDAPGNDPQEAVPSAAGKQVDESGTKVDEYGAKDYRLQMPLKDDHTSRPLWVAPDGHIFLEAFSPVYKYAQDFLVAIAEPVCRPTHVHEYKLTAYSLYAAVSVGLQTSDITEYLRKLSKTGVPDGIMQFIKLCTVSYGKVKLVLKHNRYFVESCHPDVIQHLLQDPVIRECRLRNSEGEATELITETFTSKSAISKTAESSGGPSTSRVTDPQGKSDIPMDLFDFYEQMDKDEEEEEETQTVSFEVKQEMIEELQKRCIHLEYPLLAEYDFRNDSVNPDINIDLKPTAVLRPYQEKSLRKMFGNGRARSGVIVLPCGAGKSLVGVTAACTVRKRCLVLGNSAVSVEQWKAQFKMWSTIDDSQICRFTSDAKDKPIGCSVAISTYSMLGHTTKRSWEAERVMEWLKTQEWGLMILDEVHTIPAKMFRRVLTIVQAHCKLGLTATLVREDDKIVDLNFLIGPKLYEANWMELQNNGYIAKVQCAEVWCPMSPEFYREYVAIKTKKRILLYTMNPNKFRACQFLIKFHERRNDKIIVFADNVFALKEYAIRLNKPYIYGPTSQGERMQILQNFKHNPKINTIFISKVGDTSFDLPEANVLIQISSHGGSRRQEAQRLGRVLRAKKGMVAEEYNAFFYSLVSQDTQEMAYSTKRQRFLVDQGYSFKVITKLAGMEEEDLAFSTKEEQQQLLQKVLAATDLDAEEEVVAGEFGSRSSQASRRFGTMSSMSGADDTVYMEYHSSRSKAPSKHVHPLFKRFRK
human XPB + human p52 + human p8, one chain, as listed by the source, chain 2 of 3: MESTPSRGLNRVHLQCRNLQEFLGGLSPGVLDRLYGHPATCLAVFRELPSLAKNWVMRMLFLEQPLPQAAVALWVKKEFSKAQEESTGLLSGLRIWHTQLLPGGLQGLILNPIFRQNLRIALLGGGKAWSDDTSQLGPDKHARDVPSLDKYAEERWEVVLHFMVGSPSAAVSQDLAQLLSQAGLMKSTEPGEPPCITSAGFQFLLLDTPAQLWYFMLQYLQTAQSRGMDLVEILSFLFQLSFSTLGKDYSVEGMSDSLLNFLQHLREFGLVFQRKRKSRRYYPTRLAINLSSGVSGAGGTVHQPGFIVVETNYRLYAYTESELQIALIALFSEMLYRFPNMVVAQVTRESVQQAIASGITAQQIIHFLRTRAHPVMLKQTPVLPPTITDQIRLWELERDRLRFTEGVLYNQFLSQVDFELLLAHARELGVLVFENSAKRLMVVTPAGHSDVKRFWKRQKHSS
human XPB + human p52 + human p8, one chain, as listed by the source, chain 3 of 3: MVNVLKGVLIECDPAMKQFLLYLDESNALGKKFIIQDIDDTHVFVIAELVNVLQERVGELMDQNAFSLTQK

Measured: binding result

TAGTCACAGCTGATTGCGCTCTGCTCCATAGT / TGATACTTCGAGAGCGCAATCAGCTGTGACTA [forked DNA]
binds more weakly: human XPA (human) | [1] | [2]; weaker than RED mutant | [3]

TAGTCACAGCTGATTTTTCTCTGCTCCATAGT / ACTATGGAGCAGAGTTTTTTCAGCTGTGACTA [bubble-5 DNA]
binds more weakly: [1]; significantly reduced | [2]; almost eliminated
